For assay [1], the target named is MIWI^YY (MIWI Y346A/Y347A, PAZ-domain piRNA loading-deficient mutant), endogenous in Miwi^YY/YY knock-in mouse testes (mouse (endogenous in mouse testes)) (UniProt Q9JMB7). Put plainly: co-IP; anti-MIWI (in-house rabbit polyclonal) IP from mouse testicular lysate (18 dpp or adult; wildtype, Miwi^YY/YY, Miwi^YK/YK, Tdrd6^−/−), immunoblot for TDRKH and TDRD6; with or without RNase A treatment of the lysate; antibody-coupled Protein A/G beads, 4 °C, wash with 500 mM NaCl.

Sequences of proteins named here, by UniProt entry; tags and fusion partners are left off. A change or cut given only in a name is not applied to a line headed by its entry.
UniProt Q9JMB7: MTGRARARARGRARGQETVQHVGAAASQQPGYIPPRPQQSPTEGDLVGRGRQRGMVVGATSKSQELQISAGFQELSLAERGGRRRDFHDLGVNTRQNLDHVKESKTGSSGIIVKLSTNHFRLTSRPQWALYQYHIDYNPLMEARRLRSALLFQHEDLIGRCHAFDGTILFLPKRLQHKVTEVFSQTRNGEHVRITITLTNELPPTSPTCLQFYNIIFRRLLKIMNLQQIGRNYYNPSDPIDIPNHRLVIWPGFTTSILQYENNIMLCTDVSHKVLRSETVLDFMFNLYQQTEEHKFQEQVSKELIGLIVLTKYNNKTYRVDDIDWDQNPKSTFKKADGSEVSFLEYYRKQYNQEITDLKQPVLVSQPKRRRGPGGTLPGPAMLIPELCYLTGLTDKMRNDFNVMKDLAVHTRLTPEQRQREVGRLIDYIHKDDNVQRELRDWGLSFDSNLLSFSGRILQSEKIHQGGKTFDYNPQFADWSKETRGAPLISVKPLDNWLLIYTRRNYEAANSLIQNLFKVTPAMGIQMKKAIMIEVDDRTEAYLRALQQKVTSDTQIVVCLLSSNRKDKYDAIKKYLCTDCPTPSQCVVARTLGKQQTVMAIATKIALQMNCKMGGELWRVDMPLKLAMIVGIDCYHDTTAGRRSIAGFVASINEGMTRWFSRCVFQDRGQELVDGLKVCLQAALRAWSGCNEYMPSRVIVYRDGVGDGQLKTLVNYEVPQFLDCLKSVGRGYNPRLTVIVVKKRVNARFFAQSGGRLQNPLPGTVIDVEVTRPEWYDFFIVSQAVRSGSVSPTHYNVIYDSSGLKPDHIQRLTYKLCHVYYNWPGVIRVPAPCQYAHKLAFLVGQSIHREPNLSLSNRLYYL

The target in assay [2] is MIWI^YK (MIWI Y569L/K573E, MID-domain piRNA loading-deficient mutant), endogenous in Miwi^YK/YK knock-in mouse testes (mouse (endogenous in mouse testes)) (UniProt Q9JMB7). Described as above.
Assay [3] has as its target Flag-tagged MIWI stably expressed in GC-2spd (ts) cells (mouse) (UniProt Q9JMB7). In words: co-IP; lysates of GC-2spd (ts) cells stably expressing Flag-tagged MIWI; with or without piRNA transfection and RNase A treatment; TDRKH blot normalised with MIWI blotting.

This is an account of results in paper PMC10943014.

Results are given in words; binding and its absence hold for the method and conditions named. In cells and extracts the contact can be indirect. Some results given as binding are weak or reduced against the parent protein; the word gives no strength.

B1: TDRKH (mitochondria-anchored Tudor domain-containing protein), endogenous in mouse testes (protein, UniProt Q80VL1 1-560)
chain: MSTERTSWTNLSTIQKIALGLGIPASATVAYILYRRYRESREERLTFVGEDDIEIEMRVPQEAVKLIIGRQGANIKQLRKQTGARIDVDTEDVGDERVLLISGFPVQVCKAKAAIHQILTENTPVFEQLSVPQRSVGRIIGRGGETIRSICKASGAKITCDKESEGTLLLSRLIKISGTQKEVAAAKHLILEKVSEDEELRKRIAHSAETRVPRKQPISVRREEVTEPGGAGEAALWKNTNSSMGPATPLEVPLRKGGGDMVVVGPKEGSWEKPNDDSFQNSGAQSSPETSMFEIPSPDFSFHADEYLEVYVSASEHPNHFWIQIIGSRSLQLDKLVSEMTQHYENSLPEDLTVHVGDIVAAPLSTNGSWYRARVLGTLENGNLDLYFVDFGDNGDCALKDLRALRSDFLSLPFQAIECSLARIAPTGEEWEEEALDEFDRLTHCADWKPLVAKISSYVQTGISTWPKIYLYDTSDEKKLDIGLELVRKGYAVELPEDMEENRTVPNMLKDMATETDDSLASILTETKKSPEEMPHTLSCLSLSEAASMSGDDNLEDDLF
Regarding B1, the binding entry in assay [1] and in assay [2] was “binds” each time.

B2: TDRKH in GC-2spd (ts) cells (protein, UniProt Q80VL1 1-560)
chain: MSTERTSWTNLSTIQKIALGLGIPASATVAYILYRRYRESREERLTFVGEDDIEIEMRVPQEAVKLIIGRQGANIKQLRKQTGARIDVDTEDVGDERVLLISGFPVQVCKAKAAIHQILTENTPVFEQLSVPQRSVGRIIGRGGETIRSICKASGAKITCDKESEGTLLLSRLIKISGTQKEVAAAKHLILEKVSEDEELRKRIAHSAETRVPRKQPISVRREEVTEPGGAGEAALWKNTNSSMGPATPLEVPLRKGGGDMVVVGPKEGSWEKPNDDSFQNSGAQSSPETSMFEIPSPDFSFHADEYLEVYVSASEHPNHFWIQIIGSRSLQLDKLVSEMTQHYENSLPEDLTVHVGDIVAAPLSTNGSWYRARVLGTLENGNLDLYFVDFGDNGDCALKDLRALRSDFLSLPFQAIECSLARIAPTGEEWEEEALDEFDRLTHCADWKPLVAKISSYVQTGISTWPKIYLYDTSDEKKLDIGLELVRKGYAVELPEDMEENRTVPNMLKDMATETDDSLASILTETKKSPEEMPHTLSCLSLSEAASMSGDDNLEDDLF
Regarding B2, the binding result in assay [3] was “binds”.
